The assay deals with recombinant human soluble Flt-1 (human) (UniProt P17948). The assay is described as follows: size exclusion chromatography of the mixture. (Size exclusion chromatography separates by hydrodynamic size, large species first.)

The chains behind the UniProt entries cited, without tags or fusion partners. Where a name states a change or a piece, a line headed by the entry shows the natural chain unless it says otherwise.
UniProt P17948: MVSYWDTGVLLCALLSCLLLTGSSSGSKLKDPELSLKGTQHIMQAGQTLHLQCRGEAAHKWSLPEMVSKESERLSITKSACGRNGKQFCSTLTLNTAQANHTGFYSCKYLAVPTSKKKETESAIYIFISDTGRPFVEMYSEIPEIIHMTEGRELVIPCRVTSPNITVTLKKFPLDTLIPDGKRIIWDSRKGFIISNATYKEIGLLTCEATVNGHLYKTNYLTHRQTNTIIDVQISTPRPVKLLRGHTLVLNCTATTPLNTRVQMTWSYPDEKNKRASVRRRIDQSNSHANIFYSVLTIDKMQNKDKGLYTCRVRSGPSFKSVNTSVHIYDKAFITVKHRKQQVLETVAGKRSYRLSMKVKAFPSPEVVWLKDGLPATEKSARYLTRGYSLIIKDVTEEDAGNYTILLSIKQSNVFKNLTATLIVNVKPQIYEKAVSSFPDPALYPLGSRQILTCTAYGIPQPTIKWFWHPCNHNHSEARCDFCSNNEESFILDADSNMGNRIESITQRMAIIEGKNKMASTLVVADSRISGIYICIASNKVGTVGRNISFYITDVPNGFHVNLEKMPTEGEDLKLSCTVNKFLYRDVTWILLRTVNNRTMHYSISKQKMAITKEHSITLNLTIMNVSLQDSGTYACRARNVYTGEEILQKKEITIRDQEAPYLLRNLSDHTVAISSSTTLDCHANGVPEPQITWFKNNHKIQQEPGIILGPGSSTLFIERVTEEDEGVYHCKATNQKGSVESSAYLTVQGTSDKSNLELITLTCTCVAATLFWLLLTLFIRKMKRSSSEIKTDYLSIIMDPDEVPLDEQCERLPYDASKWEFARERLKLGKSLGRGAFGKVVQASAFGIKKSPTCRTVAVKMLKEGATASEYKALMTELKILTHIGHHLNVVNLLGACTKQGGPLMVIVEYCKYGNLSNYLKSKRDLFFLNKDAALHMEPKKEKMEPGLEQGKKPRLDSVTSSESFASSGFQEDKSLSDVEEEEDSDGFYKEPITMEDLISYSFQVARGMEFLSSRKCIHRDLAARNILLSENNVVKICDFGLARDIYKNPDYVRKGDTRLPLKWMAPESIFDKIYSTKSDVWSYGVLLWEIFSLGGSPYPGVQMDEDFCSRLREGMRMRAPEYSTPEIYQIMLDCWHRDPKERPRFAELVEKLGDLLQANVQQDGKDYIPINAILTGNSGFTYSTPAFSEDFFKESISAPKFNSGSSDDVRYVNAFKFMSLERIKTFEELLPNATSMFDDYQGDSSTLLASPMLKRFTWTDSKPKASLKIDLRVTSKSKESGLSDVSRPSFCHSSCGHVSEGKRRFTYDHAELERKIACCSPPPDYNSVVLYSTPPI

These are yes or no findings as the source states them, for the method shown. Some results given as binding are weak or reduced against the parent protein; the word gives no strength.

B1: 21B3 (antibody, V domains shown)
VH: ELQLVESGGGLVQPGGSLRLSCAASGFTFRDYSMSWVRQAPGKGLEWVSAISWNGDSTYYAESMKGRFTISRDNAKNTLYLQMNSLKSEDTAVYYCAKSWATPIESLYYYGMDYWGKGTLVTVSS
VL: SYELTQSPSVSVALRQTAKITCGGNNIGSQTAQWYQQKPGQAPVLVIYANNRRPSGIPERFSGSKSGNTATLTISGAQAEDEADYYCQVWDGSTQAIVFGGGTHLTVL
With B1, the binding result is “binds”.

(Values after US20240076387A1.)
